This note sets out measurements from patent US20250283871A1, “COMPOSITIONS AND METHODS FOR MODULATING THE INTERACTION BETWEEN SS18-SSX FUSION ONCOPROTEIN AND NUCLEOSOMES” (Dana-Farber Cancer Institute, Inc., priority 2020, published 2025).

This series deals with BAF complex subunits and histone proteins. The experiment in a line: Mass spectrometry proteomics of purified HA-SS18 WT and HA-SS18-SSX1 complexes (Tables 5A-5E). On the set-up: species or system human. The following applies: for Total / Unique: HA-SS18SSX1_CHR_peptides; for Total: total peptides of the identified protein; for Unique: unique peptides of the identified protein.

Where [1] appears, read: HA-SS18WT_CHR_peptides: protein identified in HA-SS18 WT BAF complex purification from nuclease-treated solubilized chromatin (CHR), HEK-293T.
Where [2] appears, read: HA-SS18SSX1_CHR_peptides: protein identified in the HA-SS18-SSX1 purification from solubilized chromatin (CHR), HEK-293T.
[3] abbreviates: HA-SS18WT_CHR_peptides: HA-SS18 WT purification from nuclease-treated solubilized chromatin (CHR), HEK-293T, label = protein identified.

B1: MTF2 (protein, UniProt Q9Y483 1-593, looked up)
Metal-response …: MRDSTGAGNSLVHKRSPLRRNQKTPTSLTKLSLQDGHKAKKPACKFEEGQDVLARWSDGLFYLGTIKKINILKQSCFIIFEDSSKSWVLWKDIQTGATGSGEMVCTICQEEYSEAPNEMVICDKCGQGYHQLCHTPHIDSSVIDSDEKWLCRQCVFATTTKRGGALKKGPNAKALQVMKQTLPYSVADLEWDAGHKTNVQQCYCYCGGPGDWYLKMLQCCKCKQWFHEACVQCLQKPMLFGDRFYTFICSVCSSGPEYLKRLPLQWVDIAHLCLYNLSVIHKKKYFDSELELMTYINENWDRLHPGELADTPKSERYEHVLEALNDYKTMFMSGKEIKKKKHLFGLRIRVPPVPPNVAFKAEKEPEGTSHEFKIKGRKASKPISDSREVSNGIEKKGKKKSVGRPPGPYTRKMIQKTAEPLLDKESISENPTLDLPCSIGRTEGTAHSSNTSDVDFTGASSAKETTSSSISRHYGLSDSRKRTRTGRSWPAAIPHLRRRRGRLPRRALQTQNSEIVKDDEGKEDYQFDELNTEILNNLADQELQLNHLKNSITSYFGAAGRIACGEKYRVLARRVTLDGKVQYLVEWEGATAS
For B1, the Total worked out at 2 and the Unique amounted to 2.

B2: PRB1 (protein, UniProt P04280 17-392, looked up)
Basic salivary proline-rich …: QNLNEDVSQEESPSLIAGNPQGPSPQGGNKPQGPPPPPGKPQGPPPQGGNKPQGPPPPGKPQGPPPQGDKSRSPRSPPGKPQGPPPQGGNQPQGPPPPPGKPQGPPPQGGNKPQGPPPPGKPQGPPPQGDKSQSPRSPPGKPQGPPPQGGNQPQGPPPPPGKPQGPPPQGGNKPQGPPPPGKPQGPPPQGDKSQSPRSPPGKPQGPPPQGGNQPQGPPPPPGKPQGPPQQGGNRPQGPPPPGKPQGPPPQGDKSRSPQSPPGKPQGPPPQGGNQPQGPPPPPGKPQGPPPQGGNKPQGPPPPGKPQGPPAQGGSKSQSARSPPGKPQGPPQQEGNNPQGPPPPAGGNPQQPQAPPAGQPQGPPRPPQGGRPSRPPQ
Consider B2, for which the Total was 1 and the Unique stood at 1.

B3: NOL6 (protein, UniProt Q9H6R4 1-1146, looked up)
Nucleolar protein 6: MGPAPAGEQLRGATGEPEVMEPALEGTGKEGKKASSRKRTLAEPPAKGLLQPVKLSRAELYKEPTNEELNRLRETEILFHSSLLRLQVEELLKEVRLSEKKKDRIDAFLREVNQRVVRVPSVPETELTDQAWLPAGVRVPLHQVPYAVKGCFRFLPPAQVTVVGSYLLGTCIRPDINVDVALTMPREILQDKDGLNQRYFRKRALYLAHLAHHLAQDPLFGSVCFSYTNGCHLKPSLLLRPRGKDERLVTVRLHPCPPPDFFRPCRLLPTKNNVRSAWYRGQSPAGDGSPEPPTPRYNTWVLQDTVLESHLQLLSTILSSAQGLKDGVALLKVWLRQRELDKGQGGFTGFLVSMLVVFLVSTRKIHTTMSGYQVLRSVLQFLATTDLTVNGISLCLSSDPSLPALADFHQAFSVVFLDSSGHLNLCADVTASTYHQVQHEARLSMMLLDSRADDGFHLLLMTPKPMIRAFDHVLHLRPLSRLQAACHRLKLWPELQDNGGDYVSAALGPLTTLLEQGLGARLNLLAHSRPPVPEWDISQDPPKHKDSGTLTLGLLLRPEGLTSVLELGPEADQPEAAKFRQFWGSRSELRRFQDGAIREAVVWEAASMSQKRLIPHQVVTHLLALHADIPETCVHYVGGPLDALIQGLKETSSTGEEALVAAVRCYDDLSRLLWGLEGLPLTVSAVQGAHPVLRYTEVFPPTPVRPAFSFYETLRERSSLLPRLDKPCPAYVEPMTVVCHLEGSGQWPQDAEAVQRVRAAFQLRLAELLTQQHGLQCRATATHTDVLKDGFVFRIRVAYQREPQILKEVQSPEGMISLRDTAASLRLERDTRQLPLLTSALHGLQQQHPAFSGVARLAKRWVRAQLLGEGFADESLDLVAAALFLHPEPFTPPSSPQVGFLRFLFLVSTFDWKNNPLFVNLNNELTVEEQVEIRSGFLAARAQLPVMVIVTPQDRKNSVWTQDGPSAQILQQLVVLAAEALPMLEKQLMDPRGPGDIRTVFRPPLDIYDVLIRLSPRHIPRHRQAVDSPAASFCRGLLSQPGPSSLMPVLGYDPPQLYLTQLREAFGDLALFFYDQHGGEVIGVLWKPTSFQPQPFKASSTKGRMVMSRGGELVMVPNVEAILEDFAVLGEGLVQTVEARSERWTV
Regarding B3, the Total is given as 2 and the Unique is given as 2.

B4: MYEF2 (protein, UniProt Q9P2K5 1-600, looked up)
Myelin expression factor 2: MADANKAEVPGATGGDSPHLQPAEPPGEPRREPHPAEAEKQQPQHSSSSNGVKMENDESAKEEKSDLKEKSTGSKKANRFHPYSKDKNSGAGEKKGPNRNRVFISNIPYDMKWQAIKDLMREKVGEVTYVELFKDAEGKSRGCGVVEFKDEEFVKKALETMNKYDLSGRPLNIKEDPDGENARRALQRTGGSFPGGHVPDMGSGLMNLPPSILNNPNIPPEVISNLQAGRLGSTIFVANLDFKVGWKKLKEVFSIAGTVKRADIKEDKDGKSRGMGTVTFEQAIEAVQAISMFNGQFLFDRPMHVKMDDKSVPHEEYRSHDGKTPQLPRGLGGIGMGLGPGGQPISASQLNIGGVMGNLGPGGMGMDGPGFGGMNRIGGGIGFGGLEAMNSMGGFGGVGRMGELYRGAMTSSMERDFGRGDIGINQGFGDSFGRLGSAMIGGFAGRIGSSNMGPVGSGISGGMGSMNSVTGGMGMGLDRMSSSFDRMGPGIGAILERSIDMDRGFLSGPMGSGMRERIGSKGNQIFVRNLPFDLTWQKLKEKFSQCGHVMFAEIKMENGKSKGCGTVRFDSPESAEKACRIMNGIKISGREIDVRLDRNA
As for B4, the Total was determined as 2 and the Unique is 2. Further, under setting [1], the “Total (total peptides)” value was 1 and the “Unique (unique peptides)” value is listed as 1.

B5: RBM22 (protein, UniProt Q9NW64 2-420, looked up)
Pre-mRNA-splicing factor RBM22: ATSLGSNTYNRQNWEDADFPILCQTCLGENPYIRMTKEKYGKECKICARPFTVFRWCPGVRMRFKKTEVCQTCSKLKNVCQTCLLDLEYGLPIQVRDAGLSFKDDMPKSDVNKEYYTQNMEREISNSDGTRPVGMLGKATSTSDMLLKLARTTPYYKRNRPHICSFWVKGECKRGEECPYRHEKPTDPDDPLADQNIKDRYYGINDPVADKLLKRASTMPRLDPPEDKTITTLYVGGLGDTITETDLRNHFYQFGEIRTITVVQRQQCAFIQFATRQAAEVAAEKSFNKLIVNGRRLNVKWGRSQAARGKEKEKDGTTDSGIKLEPVPGLPGALPPPPAAEEEASANYFNLPPSGPPAVVNIALPPPPGIAPPPPPGFGPHMFHPMGPPPPFMRAPGPIHYPSQDPQRMGAHAGKHSSP
B5 gave a Total of 1 and a Unique of 1. Further, under setting [1], the “Total (total peptides)” value was found to be 2 and the “Unique (unique peptides)” value amounted to 2.

B6: BAZ1B (protein, UniProt Q9UIG0 1-1483, looked up)
Tyrosine-protein kinase BAZ1B: MAPLLGRKPFPLVKPLPGEEPLFTIPHTQEAFRTREEYEARLERYSERIWTCKSTGSSQLTHKEAWEEEQEVAELLKEEFPAWYEKLVLEMVHHNTASLEKLVDTAWLEIMTKYAVGEECDFEVGKEKMLKVKIVKIHPLEKVDEEATEKKSDGACDSPSSDKENSSQIAQDHQKKETVVKEDEGRRESINDRARRSPRKLPTSLKKGERKWAPPKFLPHKYDVKLQNEDKIISNVPADSLIRTERPPNKEIVRYFIRHNALRAGTGENAPWVVEDELVKKYSLPSKFSDFLLDPYKYMTLNPSTKRKNTGSPDRKPSKKSKTDNSSLSSPLNPKLWCHVHLKKSLSGSPLKVKNSKNSKSPEEHLEEMMKMMSPNKLHTNFHIPKKGPPAKKPGKHSDKPLKAKGRSKGILNGQKSTGNSKSPKKGLKTPKTKMKQMTLLDMAKGTQKMTRAPRNSGGTPRTSSKPHKHLPPAALHLIAYYKENKDREDKRSALSCVISKTARLLSSEDRARLPEELRSLVQKRYELLEHKKRWASMSEEQRKEYLKKKREELKKKLKEKAKERREKEMLERLEKQKRYEDQELTGKNLPAFRLVDTPEGLPNTLFGDVAMVVEFLSCYSGLLLPDAQYPITAVSLMEALSADKGGFLYLNRVLVILLQTLLQDEIAEDYGELGMKLSEIPLTLHSVSELVRLCLRRSDVQEESEGSDTDDNKDSAAFEDNEVQDEFLEKLETSEFFELTSEEKLQILTALCHRILMTYSVQDHMETRQQMSAELWKERLAVLKEENDKKRAEKQKRKEMEAKNKENGKVENGLGKTDRKKEIVKFEPQVDTEAEDMISAVKSRRLLAIQAKKEREIQEREMKVKLERQAEEERIRKHKAAAEKAFQEGIAKAKLVMRRTPIGTDRNHNRYWLFSDEVPGLFIEKGWVHDSIDYRFNHHCKDHTVSGDEDYCPRSKKANLGKNASMNTQHGTATEVAVETTTPKQGQNLWFLCDSQKELDELLNCLHPQGIRESQLKERLEKRYQDIIHSIHLARKPNLGLKSCDGNQELLNFLRSDLIEVATRLQKGGLGYVEETSEFEARVISLEKLKDFGECVIALQASVIKKFLQGFMAPKQKRRKLQSEDSAKTEEVDEEKKMVEEAKVASALEKWKTAIREAQTFSRMHVLLGMLDACIKWDMSAENARCKVCRKKGEDDKLILCDECNKAFHLFCLRPALYEVPDGEWQCPACQPATARRNSRGRNYTEESASEDSEDDESDEEEEEEEEEEEEEDYEVAGLRLRPRKTIRGKHSVIPPAARSGRRPGKKPHSTRRSQPKAPPVDDAEVDELVLQTKRSSRRQSLELQKCEEILHKIVKYRFSWPFREPVTRDEAEDYYDVITHPMDFQTVQNKCSCGSYRSVQEFLTDMKQVFTNAEVYNCRGSHVLSCMVKTEQCLVALLHKHLPGHPYVRRKRKKFPDRLAEDEGDSEPEAVGQSRGRRQKK
Take B6: under setting [2], the “Total (total peptides)” value is listed as 28 and the “Unique (unique peptides)” value was 26. Further, under setting [3], the “Total (peptides)” value was 19 and the “Unique (peptides)” value was determined as 19.

B7: RBBP7 (protein, UniProt Q16576 2-425, looked up)
Histone-binding protein RBBP7: ASKEMFEDTVEERVINEEYKIWKKNTPFLYDLVMTHALQWPSLTVQWLPEVTKPEGKDYALHWLVLGTHTSDEQNHLVVARVHIPNDDAQFDASHCDSDKGEFGGFGSVTGKIECEIKINHEGEVNRARYMPQNPHIIATKTPSSDVLVFDYTKHPAKPDPSGECNPDLRLRGHQKEGYGLSWNSNLSGHLLSASDDHTVCLWDINAGPKEGKIVDAKAIFTGHSAVVEDVAWHLLHESLFGSVADDQKLMIWDTRSNTTSKPSHLVDAHTAEVNCLSFNPYSEFILATGSADKTVALWDLRNLKLKLHTFESHKDEIFQVHWSPHNETILASSGTDRRLNVWDLSKIGEEQSAEDAEDGPPELLFIHGGHTAKISDFSWNPNEPWVICSVSEDNIMQIWQMAENIYNDEESDVTTSELEGQGS
In turn, B7 displayed a Total of 2 and a Unique of 1.
